Assay results as given in the supplement of paper PMC10849652.
Some of the results follow.

The chains behind the UniProt entries cited, without tags or fusion partners. Where a name states a change or a piece, a line headed by the entry shows the natural chain unless it says otherwise.
UniProt Q6P1R4: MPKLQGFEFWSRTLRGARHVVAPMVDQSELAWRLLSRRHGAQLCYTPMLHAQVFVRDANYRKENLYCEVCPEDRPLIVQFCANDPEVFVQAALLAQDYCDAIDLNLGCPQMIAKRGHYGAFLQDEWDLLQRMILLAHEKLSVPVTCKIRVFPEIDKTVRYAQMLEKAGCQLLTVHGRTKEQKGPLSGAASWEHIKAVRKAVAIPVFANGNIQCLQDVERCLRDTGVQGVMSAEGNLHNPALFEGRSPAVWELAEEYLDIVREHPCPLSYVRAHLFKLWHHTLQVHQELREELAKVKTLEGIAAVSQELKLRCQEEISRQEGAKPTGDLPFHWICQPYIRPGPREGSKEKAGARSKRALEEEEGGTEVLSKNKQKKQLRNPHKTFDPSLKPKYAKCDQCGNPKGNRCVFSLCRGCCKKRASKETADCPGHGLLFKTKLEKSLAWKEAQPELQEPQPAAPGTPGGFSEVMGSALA
UniProt Q96BY6: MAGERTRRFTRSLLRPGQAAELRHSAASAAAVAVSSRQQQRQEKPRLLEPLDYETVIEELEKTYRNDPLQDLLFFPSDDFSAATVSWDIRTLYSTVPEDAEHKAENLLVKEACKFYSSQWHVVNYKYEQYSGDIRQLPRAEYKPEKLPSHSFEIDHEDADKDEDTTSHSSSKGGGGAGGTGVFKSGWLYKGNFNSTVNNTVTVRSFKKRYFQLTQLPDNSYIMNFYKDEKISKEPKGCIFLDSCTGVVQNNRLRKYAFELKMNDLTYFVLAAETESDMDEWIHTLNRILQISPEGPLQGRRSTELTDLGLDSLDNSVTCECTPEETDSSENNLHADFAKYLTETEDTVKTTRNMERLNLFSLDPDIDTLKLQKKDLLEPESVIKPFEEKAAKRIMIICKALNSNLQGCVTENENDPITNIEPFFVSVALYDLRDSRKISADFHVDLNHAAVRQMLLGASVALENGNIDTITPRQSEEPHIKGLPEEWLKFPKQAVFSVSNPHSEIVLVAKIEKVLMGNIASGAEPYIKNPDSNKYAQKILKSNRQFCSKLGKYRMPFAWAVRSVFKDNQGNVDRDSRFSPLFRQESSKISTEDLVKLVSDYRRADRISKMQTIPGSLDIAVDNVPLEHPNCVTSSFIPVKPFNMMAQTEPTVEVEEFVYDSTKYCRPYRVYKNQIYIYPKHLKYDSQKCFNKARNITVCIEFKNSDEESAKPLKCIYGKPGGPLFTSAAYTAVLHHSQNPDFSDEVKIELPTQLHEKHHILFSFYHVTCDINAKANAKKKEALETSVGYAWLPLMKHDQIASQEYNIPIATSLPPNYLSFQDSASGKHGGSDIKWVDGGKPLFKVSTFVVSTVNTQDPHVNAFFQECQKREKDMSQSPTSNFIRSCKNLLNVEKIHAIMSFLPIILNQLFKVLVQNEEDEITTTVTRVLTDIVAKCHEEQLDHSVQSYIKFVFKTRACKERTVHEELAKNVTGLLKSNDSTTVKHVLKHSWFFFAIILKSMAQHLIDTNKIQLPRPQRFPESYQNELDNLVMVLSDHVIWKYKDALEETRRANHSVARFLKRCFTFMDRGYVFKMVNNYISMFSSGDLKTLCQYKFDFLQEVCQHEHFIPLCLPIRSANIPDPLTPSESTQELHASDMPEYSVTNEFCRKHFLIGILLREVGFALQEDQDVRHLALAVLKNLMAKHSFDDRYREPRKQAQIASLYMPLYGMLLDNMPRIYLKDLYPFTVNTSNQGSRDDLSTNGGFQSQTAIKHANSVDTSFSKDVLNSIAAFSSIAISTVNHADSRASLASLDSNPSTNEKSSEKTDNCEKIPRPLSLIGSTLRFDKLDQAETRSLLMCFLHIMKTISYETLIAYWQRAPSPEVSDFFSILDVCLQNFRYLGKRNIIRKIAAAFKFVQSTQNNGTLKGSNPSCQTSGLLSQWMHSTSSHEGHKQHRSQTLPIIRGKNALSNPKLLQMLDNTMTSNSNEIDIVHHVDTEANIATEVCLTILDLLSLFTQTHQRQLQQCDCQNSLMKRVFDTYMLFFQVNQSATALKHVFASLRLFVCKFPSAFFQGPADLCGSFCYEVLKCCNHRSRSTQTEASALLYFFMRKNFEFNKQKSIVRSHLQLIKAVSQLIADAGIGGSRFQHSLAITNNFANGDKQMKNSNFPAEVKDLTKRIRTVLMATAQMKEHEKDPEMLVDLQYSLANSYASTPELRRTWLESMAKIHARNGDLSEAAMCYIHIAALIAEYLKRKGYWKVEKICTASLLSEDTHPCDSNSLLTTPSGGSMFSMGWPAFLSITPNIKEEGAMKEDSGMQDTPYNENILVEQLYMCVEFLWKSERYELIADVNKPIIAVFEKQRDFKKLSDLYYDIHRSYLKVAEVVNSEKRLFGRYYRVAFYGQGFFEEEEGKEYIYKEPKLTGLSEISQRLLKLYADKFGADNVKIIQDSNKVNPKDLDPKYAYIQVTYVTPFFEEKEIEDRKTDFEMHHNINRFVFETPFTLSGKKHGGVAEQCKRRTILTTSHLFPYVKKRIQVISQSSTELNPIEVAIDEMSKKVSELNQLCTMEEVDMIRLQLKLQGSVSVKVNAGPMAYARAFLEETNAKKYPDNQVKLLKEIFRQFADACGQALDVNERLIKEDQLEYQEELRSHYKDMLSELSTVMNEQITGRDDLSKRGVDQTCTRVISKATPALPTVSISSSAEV
UniProt Q9NVM6: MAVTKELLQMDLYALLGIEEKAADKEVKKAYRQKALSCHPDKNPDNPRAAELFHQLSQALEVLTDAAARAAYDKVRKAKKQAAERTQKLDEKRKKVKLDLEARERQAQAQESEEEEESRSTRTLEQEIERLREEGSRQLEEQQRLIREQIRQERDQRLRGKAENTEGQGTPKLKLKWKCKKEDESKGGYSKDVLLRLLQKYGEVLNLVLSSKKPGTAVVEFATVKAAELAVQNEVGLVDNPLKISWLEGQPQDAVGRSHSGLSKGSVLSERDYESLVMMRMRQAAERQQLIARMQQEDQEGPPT
UniProt Q9NRR4: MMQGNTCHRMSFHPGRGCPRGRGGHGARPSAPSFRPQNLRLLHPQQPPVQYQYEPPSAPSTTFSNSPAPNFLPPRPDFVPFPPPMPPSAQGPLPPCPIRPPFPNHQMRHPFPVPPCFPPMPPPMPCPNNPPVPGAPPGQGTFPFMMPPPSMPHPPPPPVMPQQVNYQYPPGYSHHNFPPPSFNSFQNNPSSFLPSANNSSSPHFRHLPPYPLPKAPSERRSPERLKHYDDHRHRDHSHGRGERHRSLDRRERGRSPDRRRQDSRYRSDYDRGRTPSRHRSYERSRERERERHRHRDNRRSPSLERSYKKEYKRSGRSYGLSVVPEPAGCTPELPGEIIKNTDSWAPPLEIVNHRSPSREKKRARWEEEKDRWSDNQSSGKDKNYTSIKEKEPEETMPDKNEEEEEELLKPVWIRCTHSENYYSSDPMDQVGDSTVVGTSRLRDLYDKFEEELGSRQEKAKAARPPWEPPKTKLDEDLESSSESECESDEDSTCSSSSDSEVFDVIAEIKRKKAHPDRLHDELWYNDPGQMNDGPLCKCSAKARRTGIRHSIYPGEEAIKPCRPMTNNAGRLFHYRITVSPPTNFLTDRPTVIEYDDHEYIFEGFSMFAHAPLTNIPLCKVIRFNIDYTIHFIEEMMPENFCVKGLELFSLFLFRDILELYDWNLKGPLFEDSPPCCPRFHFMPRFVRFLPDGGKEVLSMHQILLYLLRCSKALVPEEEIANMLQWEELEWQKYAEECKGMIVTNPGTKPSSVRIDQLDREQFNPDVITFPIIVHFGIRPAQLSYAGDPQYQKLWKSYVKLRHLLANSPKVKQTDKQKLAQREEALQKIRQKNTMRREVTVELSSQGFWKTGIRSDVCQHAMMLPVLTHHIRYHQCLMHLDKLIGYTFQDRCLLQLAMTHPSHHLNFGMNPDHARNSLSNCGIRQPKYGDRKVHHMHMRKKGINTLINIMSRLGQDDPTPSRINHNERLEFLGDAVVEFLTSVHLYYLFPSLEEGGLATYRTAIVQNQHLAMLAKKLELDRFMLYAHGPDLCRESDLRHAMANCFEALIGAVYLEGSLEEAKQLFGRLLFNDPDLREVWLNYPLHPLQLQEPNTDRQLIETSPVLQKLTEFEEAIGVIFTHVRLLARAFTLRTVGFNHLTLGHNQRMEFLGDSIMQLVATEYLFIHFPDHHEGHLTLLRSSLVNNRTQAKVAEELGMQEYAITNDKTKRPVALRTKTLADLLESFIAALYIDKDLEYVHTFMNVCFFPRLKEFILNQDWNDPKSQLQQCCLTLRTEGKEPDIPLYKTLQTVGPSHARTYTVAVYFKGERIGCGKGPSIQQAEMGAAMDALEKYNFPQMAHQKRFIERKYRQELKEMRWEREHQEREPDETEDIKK
UniProt Q13409, whole entry, looked up: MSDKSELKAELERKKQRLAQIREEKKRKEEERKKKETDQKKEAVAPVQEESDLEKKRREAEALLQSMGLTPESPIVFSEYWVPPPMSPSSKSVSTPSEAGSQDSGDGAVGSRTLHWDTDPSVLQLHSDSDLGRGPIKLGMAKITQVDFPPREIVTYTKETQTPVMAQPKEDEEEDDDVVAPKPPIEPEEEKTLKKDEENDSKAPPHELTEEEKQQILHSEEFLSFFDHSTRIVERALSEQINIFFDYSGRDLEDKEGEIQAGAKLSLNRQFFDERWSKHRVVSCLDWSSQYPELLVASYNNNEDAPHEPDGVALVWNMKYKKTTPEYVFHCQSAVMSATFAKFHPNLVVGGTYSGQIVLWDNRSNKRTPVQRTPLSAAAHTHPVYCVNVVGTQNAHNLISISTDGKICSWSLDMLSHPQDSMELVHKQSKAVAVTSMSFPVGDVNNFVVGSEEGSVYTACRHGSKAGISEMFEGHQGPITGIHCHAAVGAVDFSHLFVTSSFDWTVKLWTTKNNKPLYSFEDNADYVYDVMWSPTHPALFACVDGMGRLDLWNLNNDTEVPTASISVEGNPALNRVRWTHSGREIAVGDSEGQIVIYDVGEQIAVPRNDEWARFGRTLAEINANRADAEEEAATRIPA
UniProt Q9UPQ8: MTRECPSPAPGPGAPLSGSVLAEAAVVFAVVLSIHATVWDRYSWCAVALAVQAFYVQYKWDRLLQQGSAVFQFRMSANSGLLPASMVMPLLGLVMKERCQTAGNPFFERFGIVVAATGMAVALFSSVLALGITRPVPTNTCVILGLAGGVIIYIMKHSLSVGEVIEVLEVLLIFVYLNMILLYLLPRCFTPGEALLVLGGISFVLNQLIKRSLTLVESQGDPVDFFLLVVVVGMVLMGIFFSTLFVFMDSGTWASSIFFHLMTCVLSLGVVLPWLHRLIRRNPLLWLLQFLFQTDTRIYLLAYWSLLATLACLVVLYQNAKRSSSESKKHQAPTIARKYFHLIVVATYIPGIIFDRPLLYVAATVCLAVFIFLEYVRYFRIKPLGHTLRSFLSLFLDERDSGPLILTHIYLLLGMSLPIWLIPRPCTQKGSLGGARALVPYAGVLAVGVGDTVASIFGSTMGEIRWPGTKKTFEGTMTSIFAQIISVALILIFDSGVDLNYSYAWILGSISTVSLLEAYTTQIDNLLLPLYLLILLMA
UniProt Q4LDG9: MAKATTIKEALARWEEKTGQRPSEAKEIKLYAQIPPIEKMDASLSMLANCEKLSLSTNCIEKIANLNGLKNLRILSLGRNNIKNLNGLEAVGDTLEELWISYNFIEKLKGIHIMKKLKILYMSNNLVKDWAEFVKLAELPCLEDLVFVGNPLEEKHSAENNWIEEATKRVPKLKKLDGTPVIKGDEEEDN
UniProt P51808: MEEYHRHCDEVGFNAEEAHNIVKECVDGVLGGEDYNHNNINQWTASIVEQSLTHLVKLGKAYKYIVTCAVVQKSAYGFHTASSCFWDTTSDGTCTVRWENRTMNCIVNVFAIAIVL
UniProt Q96FN9: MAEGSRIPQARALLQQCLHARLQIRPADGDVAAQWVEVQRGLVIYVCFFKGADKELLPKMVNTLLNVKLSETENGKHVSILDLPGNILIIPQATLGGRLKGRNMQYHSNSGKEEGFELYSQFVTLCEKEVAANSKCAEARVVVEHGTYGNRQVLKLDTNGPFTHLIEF
UniProt Q96EV8: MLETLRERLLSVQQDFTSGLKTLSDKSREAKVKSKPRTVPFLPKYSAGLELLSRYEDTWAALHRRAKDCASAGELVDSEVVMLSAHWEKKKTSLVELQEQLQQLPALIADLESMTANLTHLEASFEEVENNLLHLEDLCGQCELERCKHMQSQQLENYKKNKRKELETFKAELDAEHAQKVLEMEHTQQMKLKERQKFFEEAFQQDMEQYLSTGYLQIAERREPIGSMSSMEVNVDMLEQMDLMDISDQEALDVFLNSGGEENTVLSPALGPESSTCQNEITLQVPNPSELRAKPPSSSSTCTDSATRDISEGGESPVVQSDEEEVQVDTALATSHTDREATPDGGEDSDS
UniProt Q9BVM2: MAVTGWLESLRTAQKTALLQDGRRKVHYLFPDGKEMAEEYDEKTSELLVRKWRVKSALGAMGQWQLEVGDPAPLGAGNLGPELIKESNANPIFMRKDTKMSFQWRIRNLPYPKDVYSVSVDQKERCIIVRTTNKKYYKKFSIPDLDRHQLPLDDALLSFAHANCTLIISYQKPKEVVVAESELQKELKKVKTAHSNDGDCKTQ

Legend:
Experiment in all cases: log2 fold change, soluble protein after heating vs DMSO (PISA); higher = thermal stabilisation; K562 cells, 10 uM, 30 min; active = over 0.2 and 3.5 SD of the protein, either way, in both replicates (recomputed)
[1] = compound: CC1=C2C(=CC=C1)N=C(N(C2=O)C3=CC=CC=C3C)CN4C=NC5=C(N=CN=C54)N
In short: (§1)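 Values are thermal stability changes relative to control samples and are taken from duplicates. They are stated as log2 fold changes. Before quantification by TMTpro 16plex LC-MS/MS with equalised channel sums, K562 cells at 2×10^6 cells/mL were treated with 10 μM compound for 30 min, heated in aliquots for 3 min across 48°C-58°C, pooled, extracted in PBS with 0.5% NP-40 at 4°C, and centrifuged at 21,000xg for 90 min to give the soluble supernatant.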

[2] = compound: CC1=C(SC2=C1C(=N[C@H](C3=NN=C(N32)C)CC(=O)N)C4=CC=C(C=C4)Cl)C
In short: as §1

[3] = compound: Cc1sc2c(c1C)C(c1ccc(Cl)cc1)=N[C@@H](CC(=O)OC(C)(C)C)c1nnc(C)n1-2
In short: as §1

[4] = compound: c1ccc([C@@H]2C[C@H]2NC2CCNCC2)cc1
In short: as §1

[5] = compound: C1=CC=C(C=C1)[C@H](COC2=CC3=C(C=C2)NC(=O)N3)NC(=O)C4=CC=CN(C4=O)CC5=CC(=C(C=C5)F)F
In short: as §1

Target	log2 fold change [1]	log2 fold change [2]	log2 fold change [3]	log2 fold change [4]	log2 fold change [5]
DYNC1I1 (UniProt O14576)	inactive: 0.15				
DUS1L (UniProt Q6P1R4)		inactive: -0.097	inactive: 0.147	inactive: 0.033	
DOCK10 (UniProt Q96BY6)	inactive: -0.109		inactive: 0		
EDRF1 (UniProt Q3B7T1)		inactive: 0.245		inactive: -0.061	inactive: 0.043
DNPEP (UniProt B9ZVU2)	inactive: -0.024	inactive: 0.105	inactive: -0.051	inactive: 0.307	
DNAJC17 (UniProt Q9NVM6)	inactive: 0.066	inactive: 0.104	inactive: 0.013	inactive: -0.005	inactive: 0.001
DROSHA (UniProt Q9NRR4)		inactive: -0.242	inactive: 0.226	inactive: -0.195	
DNAJC13 (UniProt O75165)	inactive: 0.034	inactive: 0.01	inactive: 0.033	inactive: -0.005	inactive: -0.001
DYNC1I2 isoform 2 (UniProt Q13409)		inactive: -0.059	inactive: -0.068	inactive: 0.14	inactive: 0.028
DUS3L (UniProt Q96G46)	inactive: -0.057	inactive: 0.04	inactive: -0.007	inactive: 0.007	inactive: 0.073
DPYSL3 isoform 2 (UniProt Q14195)	inactive: 0.028				
DOLK (UniProt Q9UPQ8)		inactive: 0.078		inactive: 0.1	inactive: 0.066
EAPP (UniProt Q56P03)	inactive: 0.053	inactive: 0.057	inactive: -0.116	inactive: -0.085	
DOP1A (UniProt Q5JWR5)	inactive: 0.049				inactive: 0.203
DNAL1 (UniProt Q4LDG9)	inactive: -0.264	inactive: 0.086		inactive: 0.03	inactive: 0.146
DUSP9 (UniProt Q99956)	inactive: 0.096				
DPY19L2 (UniProt Q6NUT2)	inactive: -0.17		inactive: -0.059		inactive: -0.078
DYNLRB1 (UniProt Q9NP97)	inactive: 0.037	inactive: 0.178	inactive: -0.113	inactive: 0	inactive: -0.006

Single records, as listed above.
DUS1L (UniProt Q6P1R4) as listed: log2 fold change [2]: inactive: -0.097; log2 fold change [3]: inactive: 0.147; log2 fold change [4]: inactive: 0.033
DNPEP (UniProt B9ZVU2) as listed: log2 fold change [1]: inactive: -0.024; log2 fold change [2]: inactive: 0.105; log2 fold change [3]: inactive: -0.051; log2 fold change [4]: inactive: 0.307
DYNC1I2 isoform 2 (UniProt Q13409) as listed: log2 fold change [2]: inactive: -0.059; log2 fold change [3]: inactive: -0.068; log2 fold change [4]: inactive: 0.14; log2 fold change [5]: inactive: 0.028

Later entries.

Target	log2 fold change [1]	log2 fold change [2]	log2 fold change [3]	log2 fold change [4]	log2 fold change [5]
DNPH1 (UniProt H0Y8X4)		inactive: -0.006	inactive: -0.08	inactive: 0.065	
DUSP12 (UniProt V9GYV5)	inactive: 0				
DNAJC25 (UniProt Q9H1X3)			inactive: -0.01		inactive: 0.083
DYNLT3 (UniProt P51808)		inactive: 0.029		inactive: 0.036	inactive: -0.182
DRAP1 (UniProt E9PQX9)			inactive: -0.02		
DONSON (UniProt Q9NYP3)	inactive: 0.083	inactive: -0.102	inactive: 0.154	inactive: 0.017	
DYNC2LI1 isoform 2 (UniProt Q8TCX1)	inactive: 0.203	inactive: -0.125		inactive: -0.255	
DOCK1 (UniProt Q14185)	inactive: 0.349	inactive: 0.098		inactive: 0.1	inactive: 0.016
DTD2 (UniProt Q96FN9)	inactive: 0.055	inactive: 0.051	inactive: -0.049	inactive: -0.113	
ECHDC3 (UniProt Q96DC8)	inactive: 0.012		inactive: -0.044		inactive: -0.023
ECM1 isoform 2 (UniProt Q16610)	inactive: -0.292		inactive: -0.368		inactive: 0.142
DYSF isoform 13 (UniProt O75923)	inactive: -0.264		inactive: 0.11		inactive: -0.001
DNAJB14 (UniProt H7C494)	inactive: 0.025				
DTNBP1 (UniProt Q96EV8)	inactive: 0.02	inactive: 0.031	inactive: 0.001	inactive: 0.013	inactive: -0.033
EARS2 isoform 2 (UniProt Q5JPH6)	inactive: 0.192		inactive: -0.13		inactive: -0.428
DNM1 (UniProt Q05193)	inactive: 0.258				
DPCD (UniProt Q9BVM2)	inactive: 0.018				
